# Source: the supplement of paper PMC10735217
# This is one part of the list. Single values are uncertain here, since repeats match poorly.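 The human kidney-derived cells carry a stably integrated construct of eight TEAD-binding elements driving luciferase, read by luminescence in a drug-repurposing library screen. A compound counts as a hit when its signal is more than five robust Z scores above the plate mean.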
# Tested on: HEK293A TEAD-LUC reporter
# Assay: TEAD-luciferase reporter activity (YAP activation), robust Z score vs plate; higher = stronger YAP/TEAD activation
# Conditions: 24 h
SMILES,TEAD-luciferase reporter activity (compound concentration: 200 nM),TEAD-luciferase reporter activity (compound concentration: 10 uM),TEAD-luciferase reporter activity (compound concentration: 2 uM)
[I-] [Potassium iodide],inactive: -0.27,inactive: 0.33,
C[C@@H]1NC(=O)CO[C@H]1c1ccccc1,inactive: -1.32,inactive: -0.787,inactive: 0.725
NS(=O)(=O)c1ccc(NC(=O)CSc2nnc(Br)n2-c2ccc(C3CC3)c3ccccc23)c(Cl)c1,inactive: -0.381,inactive: -1.47,inactive: -1.66
COc1ccc2ccc(C(C)CO)cc2c1 (centres undefined),inactive: -2.24,inactive: -1.22,inactive: -1.56
Cc1cc(CC(=O)O)c(C)n1-c1ccc(Cl)cc1 [clopirac],inactive: 1.39,inactive: -0.18,inactive: 0.757
CCOC(=O)[C@H](CCc1ccccc1)N[C@@H](C)C(=O)N1[C@H](C(=O)O)C[C@@H]2CCC[C@@H]21 [ramipril],,,inactive: -1.3
CCOC(=O)[C@H](CCc1ccccc1)N[C@@H](C)C(=O)N1[C@H](C(=O)O)C[C@@H]2CCC[C@@H]21,inactive: -0.522,inactive: 0.47,inactive: -0.809
COc1ccc(-c2nc(C(F)(F)F)[nH]c2-c2ccc(OC)cc2)cc1 [flumazole],inactive: -1.82,inactive: 2.74,inactive: -0.0694
CCN(CC)CCOc1ccc2nc(N(C)C)sc2c1,inactive: -0.395,inactive: 0.464,inactive: -0.0568
O=Cc1c(O)cccc1OCc1ccc(C(=O)O)cc1,inactive: -1.09,inactive: 0.0665,inactive: 0.158
CCOC(=O)C(C)(N)Cc1cc(I)c(Oc2cc(I)c(O)c(I)c2)c(I)c1 (centres undefined) [etiroxate],inactive: -1.25,active: 7.08,inactive: -1.43
CC(C)(C)[C@H](NC(=O)[C@@H](NC(=O)c1cnccn1)C1CCCCC1)C(=O)O,inactive: -1.02,inactive: 0.914,inactive: 0.0202
C=C(Cl)[C@](Cl)(CBr)CC[C@@H](Br)C(C)(C)Cl,inactive: -1.62,inactive: -0.951,inactive: 0.648
Cc1ccc(/C(=C\CN2CCCC2)c2cccc(/C=C/C(=O)O)n2)cc1 [acrivastine],inactive: -1.44,inactive: -0.295,inactive: 0.679
CCSc1ncccc1C(=O)O[C@H]1CO[C@H]2[C@@H]1OC[C@H]2O[N+](=O)[O-],inactive: -1.13,inactive: 0.721,inactive: 0.264
CCOC(=O)c1cccnc1N1CCN(Cc2c(F)cccc2Cl)CC1,inactive: -0.975,inactive: 2.49,inactive: -0.358
O=C(c1ccccc1F)N1CCC(N2CCCC2=O)CC1,inactive: -1.8,inactive: 2.2,
O=C1c2c(O)cc(O)cc2O[C@H](c2cc(O)c(O)c(O)c2)[C@H]1O [Dihydromyricetin],,,active: 8.84
O=C1c2c(O)cc(O)cc2O[C@H](c2cc(O)c(O)c(O)c2)[C@H]1O [Dihydromyricetin (Ampeloptin)],inactive: -0.129,inactive: 1.12,
Nc1ccc(S(=O)(=O)c2ccc(N)cc2)cc1,inactive: -0.575,inactive: 0.906,
"Nc1ccc(S(=O)(=O)c2ccc(N)cc2)cc1 [dapsone, SMP]",,,inactive: 0.61
COc1ccc(CCN2CCC[C@@H]2CN2c3ccccc3COc3ccccc32)cc1,inactive: -1.37,inactive: 4.96,inactive: 1.02
CCC(C)C(CC)C(N)=O (centres undefined) [Valnoctamide],inactive: -0.363,inactive: 0.175,inactive: -1.49
CCCCN(CCC1CCCCC1)Cc1ccc(C(=O)N[C@@H](CCSC)C(=O)OC)c(-c2ccccc2C)c1,inactive: -0.159,inactive: 3.71,inactive: 0.481
O=C(O)c1ccc(C(F)(F)F)cc1-c1ccc2c(c1)OCC(Cc1ccccc1)C2O (centres undefined),inactive: -0.392,inactive: 1.13,inactive: -1.09
CN/C(=N\C#N)NCCSCc1csc(N=C(N)N)n1,inactive: -0.552,inactive: -1.71,inactive: -1.19
COc1ccc(C2C(=O)c3ccccc3C2=O)cc1 [Pharmaprojects No. 1804],inactive: 0.112,inactive: 0.129,inactive: -0.771
O=C(O)C(Cl)(Cl)CCCC(Cl)(Cl)C(=O)O,inactive: 1.41,inactive: -0.645,inactive: -2.73
N=C(N)NCCCCN,inactive: 0.0953,inactive: -0.0754,
COc1cc(C2OC(c3ccncc3)=NN2C(C)=O)cc(OC)c1OC (centres undefined),inactive: -0.395,inactive: 1.46,inactive: -0.564

# As entered above:
# For TEAD-luciferase reporter activity (compound concentration: 2 uM), O=C1c2c(O)cc(O)cc2O[C@H](c2cc(O)c(O)c(O)c2)[C@H]1O [Dihydromyricetin] has active: 8.84
# For TEAD-luciferase reporter activity (compound concentration: 10 uM), CCC(C)C(CC)C(N)=O (centres undefined) [Valnoctamide] has inactive: 0.175
